The values that follow come from PubChem BioAssay AID493014 (National Center for Advancing Translational Sciences (NCATS), 2011).

This experiment in a line: qHTS Assay to Find Inhibitors of Chronic Active B-Cell Receptor Signaling. The conditions noted are these: ABC-DLBCL IkBa-CBG/CBR reporter, luminescence ratio (green luciferase fused to IkBa over red control in TMD8 lymphoma cells), 4 h. A digest of the protocol: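 Doxycycline induced both beetle luciferases in TMD8 lymphoma cells; IKK-driven degradation limits the IkappaBalpha-fused green signal, while red luminescence normalises for cell number and nonspecific effects. Compounds tested up to 46 uM, 4 hrs.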

Where [1] appears, read: measured here: CBR red luminescence, cell number.
The mark [2] stands for this setting: measured here: IkBa-CBG green luminescence.

The list shows a part of the results. Shown are side measurements of this screen, not its main read-out; they come without a call. Compounds called inactive in the main read-out are mostly missing here. The note in brackets gives the kind of curve behind each potency; many fits are weak.

By AC50 is commonly meant the midpoint of the concentration-response curve, whichever way the signal moves.

With `COc1ccc(C(=O)NNC(=S)NC(=O)c2ccc(OC)cc2)cc1`, the AC50 under setting [1] was 35.5 µM [rising, single point].

With `O=[N+]([O-])c1ccccc1-c1cc(-c2ccccc2O)n[nH]1`, under setting [1], the concentration at half-maximal activity (AC50) is 0.092 µM [falling, full curve].

With `COc1ccc(NC(=O)CSCC(=O)N(C)Cc2cccc(OC)c2OC)cc1`, under setting [1], the AC50 is 9.2 µM [rising, partial curve, poor fit].

As for `CN(Cc1ccccc1)C(=O)c1nc2ccccn2c1CNCCn1cccn1`, under setting [1], the AC50 was 0.631 µM [falling, single point].

As to `O=C(Cn1ccc(C(F)(F)F)n1)N=Nc1c(O)[nH]c2ccc(Br)cc12`, under setting [1], the AC50 is 8.91 µM [falling, partial curve].

Turning to `COc1ccc(C2C(C#N)=C(/N=C/N3CCN(C)CC3)OC3=C2C(=O)CC(C)(C)C3)cc1OC` (centres undefined), under setting [1], the AC50 was 4.61 µM [rising, single point].

Consider `CC(C)c1ccc(OCC(=O)NCc2ccco2)cc1`, for which the AC50 under setting [1] is 13 µM [rising, partial curve, poor fit].

With `CC[C@]12c3[nH]c4ccc(OC)cc4c3CCN1C(=O)C(CC(=O)NC/C=C(\C)CCC=C(C)C)C[C@@H]2C(=O)N1CCN(C(=O)c2ccco2)CC1` (some centres undefined), the AC50 under setting [1] was 23.1 µM [falling, single point].

`COc1ccccc1-c1cc(C(=O)NN)[nH]n1`: the half-maximal activity concentration (AC50) was 11.2 µM [falling, partial curve, poor fit] under setting [1] and 28.2 µM [falling, single point] under setting [2].

For the compound `Cc1ccccc1NC(=O)/C=C/c1cccs1`, under setting [1], the half-maximal activity concentration (AC50) is 35.5 µM [falling, single point].

As for `COC(=O)c1ccc(Oc2cc(C)nc(SC)n2)cc1`, the AC50 under setting [1] was 20 µM [rising, partial curve] and the half-maximal activity concentration (AC50) under setting [2] is 22.4 µM [falling, single point].

As to `COc1cc(C(=O)NNC(=S)NC(=O)c2ccc3c(c2)OCO3)cc(OC)c1OC`, the AC50 under setting [1] was 35.5 µM [rising, single point] and the AC50 under setting [2] was 28.2 µM [falling, single point].

On to `CCCCC(CC)COC(=O)c1ccc(N(C)C)cc1` (centres undefined), for which the AC50 under setting [1] is 14.6 µM [rising, partial curve].

For the compound `CCCCn1c(CN2CCOCC2)nc2c1c(=O)n(C)c(=O)n2C`, the AC50 under setting [1] was 23.1 µM [falling, single point].

Take `Nc1ncnc2c1ncn2[C@@H]1O[C@H](CNC(=O)[C@@H](N)COCc2ccccc2)[C@@H](O)[C@H]1O`: the concentration at half-maximal activity (AC50) is 29.1 µM [rising, single point] under setting [1] and 8.2 µM [falling, partial curve, poor fit] under setting [2].

`CN(C)CCNC(=O)c1ccc(-c2nn(C)c(=O)c3ccccc23)cc1`: the AC50 under setting [1] is 9.2 µM [rising, partial curve, poor fit].

Turning to `CCOC(=O)CN1C(=O)C(=O)N(Cc2c(Cl)cccc2Cl)C1=O`, the AC50 under setting [1] is 35.5 µM [rising, single point].

For the compound `CCOC(=O)c1cn2nc(N3CCCC3)ccc2n1`, the AC50 under setting [1] is 15.8 µM [falling, partial curve].

Consider `O=C(Nc1ccc2c(c1)OCCO2)c1ccc(Br)cc1`, for which the AC50 under setting [1] was 10 µM [falling, partial curve, poor fit].

Consider `COC(=O)N1C(=O)[C@](c2ccsc2)(C(C)C)N1C(=O)OC`, for which the AC50 under setting [1] is 3.16 µM [falling, partial curve].

Turning to `Cc1cc(Br)ccc1OCCN1CC(C)OC(C)C1` (centres undefined), the AC50 under setting [1] was 35.5 µM [rising, single point].

Regarding `CCCn1c(NC(=O)c2cccc(S(=O)(=O)N3CCCC3)c2)nc2ccccc21`, the concentration at half-maximal activity (AC50) under setting [1] is 7.08 µM [falling, partial curve].

Turning to `Brc1ccc2nc(-c3cccs3)c(NCC3CCCO3)n2c1` (centres undefined), the half-maximal activity concentration (AC50) by setting is: under setting [1], 10 µM [falling, partial curve, poor fit]; under setting [2], 14.1 µM [rising, partial curve, poor fit].

Turning to `COc1ccccc1N1C(=O)N(CC(=O)C(C)(C)C)c2ccccc2S1(=O)=O`, the half-maximal activity concentration (AC50) under setting [1] was 31.6 µM [falling, single point].

For the compound `COc1cc(C(=O)N2CCN(S(=O)(=O)c3ccc(F)cc3)CC2)cc(OC)c1OC`, the AC50 under setting [1] was 0.651 µM [rising, full curve, poor fit].

As for `CC(=O)Nc1ccc(NC(=O)[C@@H](NC(=O)c2ccccc2F)C(C)C)cc1`, the AC50 under setting [1] was 14.1 µM [falling, partial curve, poor fit].

`CC(=O)Nc1cc(-c2nn(C)c(=O)c3ccccc23)ccc1N1CCOCC1`: the half-maximal activity concentration (AC50) under setting [1] is 29.1 µM [rising, single point].

Consider `NC(=O)[C@H]1CC2(CC(c3cccc(NC(=O)COc4ccc(Cl)cc4)c3)=NO2)CN1C(=O)CC(c1ccccc1)c1ccccc1` (some centres undefined), for which the AC50 under setting [1] is 6.31 µM [falling, full curve, poor fit].

In the case of `CC(/C=C/c1ccccc1F)=N\NC(=O)c1ccccc1`, the AC50 under setting [1] is 12.6 µM [falling, partial curve].

As for `CC(C)CN(C(=O)COC(=O)c1nc(Cl)ccc1Cl)C1CCS(=O)(=O)C1` (centres undefined), the AC50 under setting [1] is 11.2 µM [falling, single point].

Turning to `CCN(CC)C(=S)SCC(=O)c1ccc(F)cc1`, the half-maximal activity concentration (AC50) under setting [2] is 35.5 µM [falling, single point].

For `CCOC(=O)c1c(N=CN(C)C)c2cc([N+](=O)[O-])cnc2n1C`, the AC50 under setting [1] is 0.112 µM [falling, full curve, poor fit].

On to `CC(=O)Nc1cccc(Oc2ccc(-c3noc(C)n3)cc2)c1`, for which the AC50 under setting [1] was 6.51 µM [rising, single point].

Turning to `COc1ccc(S(=O)(=O)N(C)CC(=O)Nc2ccc3c(c2)OCO3)cc1OC`, under setting [1], the AC50 is 6.51 µM [falling, single point].

In the case of `Cc1cccc(N2CCN(C(=O)C3CCN(c4ncnc5c4nc4n5CCCCC4)CC3)CC2C)c1` (centres undefined), the AC50 under setting [1] was 4.47 µM [falling, full curve].

As for `CS(=O)(=O)N(CC(=O)N1CCN(c2ccccc2F)CC1)c1cc(C(F)(F)F)ccc1Cl`, the AC50 under setting [1] was 6.51 µM [falling, partial curve, poor fit].

Take `Cc1sc(NC(=O)c2ccc3ncsc3c2)c(C(N)=O)c1C`: the AC50 under setting [1] is 0.13 µM [rising, full curve, poor fit].

On to `NS(=O)(=O)c1ccc(CCNCc2cc(Br)ccc2OCc2ccccc2F)cc1`, for which the AC50 under setting [1] is 20 µM [falling, single point].

Take `Cc1ccc(C)c(N2CCN(C(=O)C3CCCN(c4ncnc5c4nc4n5CCCCC4)C3)CC2)c1` (centres undefined): the AC50 under setting [1] was 15.8 µM [falling, single point].

For the compound `COc1cc(C2C(N3C(=O)c4ccccc4C3=O)C(=O)N2c2ccc(C)c(C)c2)cc(OC)c1OC` (centres undefined), the AC50 is 5.17 µM [rising, full curve, poor fit] under setting [1] and 9.2 µM [falling, partial curve, poor fit] under setting [2].

Consider `CCCn1cnc2c(oc3ccccc32)c1=O`, for which, under setting [1], the AC50 was 1.41 µM [rising, full curve, poor fit].

On to `COc1ccc(C2CC(=O)c3cc(OC)c(OC)cc32)cc1OC` (centres undefined), for which the AC50 was 35.5 µM [rising, single point] under setting [1] and 10 µM [falling, partial curve, poor fit] under setting [2].

Consider `CCOc1ccc(NC(=O)CSc2nnc(C)n2CC2CCCO2)cc1` (centres undefined), for which, under setting [1], the AC50 is 20.6 µM [falling, single point].

For the compound `Cc1c(C(=O)NCCc2ccccc2)oc2ccccc12`, the AC50 under setting [1] was 12.6 µM [falling, partial curve, poor fit].

Regarding `C=CCNc1nnc(Cl)c2ccccc12`, the AC50 under setting [1] was 29.1 µM [rising, single point].

Turning to `CCCc1nc(SCC(=O)N2CCCC2)c2ccccc2n1`, the AC50 under setting [1] was 25.1 µM [falling, single point].

`C=CCOc1ccc(/C(CC)=N/O)cc1OC`: the AC50 under setting [1] is 0.411 µM [rising, partial curve, poor fit].

For `CCOc1cc(C2C3=C(CCCC3=O)NC3=C2C(=O)CCC3)ccc1OCCO`, the AC50 under setting [1] is 4.61 µM [rising, single point].

`O=c1cc(CSc2nc3ccccc3[nH]2)c2ccccc2[nH]1`: the AC50 by setting is: under setting [1], 13 µM [rising, partial curve, poor fit]; under setting [2], 23.1 µM [falling, partial curve, poor fit].

`Cc1ccc(C2(C)NC(=O)N(CC(=O)N3CCN(S(=O)(=O)c4cccc(F)c4)CC3)C2=O)cc1` (centres undefined): under setting [1], the half-maximal activity concentration (AC50) is 0.501 µM [rising, full curve, poor fit].

For `CCCc1nnc2n1N=C(c1ccc(OC)c(OC)c1)CS2`, the AC50 under setting [2] was 9.2 µM [falling, partial curve].

With `CCS(=O)(=O)c1ncc(Cl)c(C(=O)NCc2ccc(OC)cc2)n1`, the AC50 was 35.5 µM [falling, single point] under setting [1] and 5.62 µM [falling, single point] under setting [2].

Take `Cc1ccc(O)c(C=Nc2cc(C)ccc2O)c1`: the AC50 under setting [1] is 20.6 µM [rising, partial curve, poor fit].

Take `COc1ccc(C(=O)NCCc2c[nH]c3ccccc23)cc1S(=O)(=O)N1CCCCC1C` (centres undefined): the AC50 under setting [1] was 0.259 µM [falling, single point].

Regarding `COc1cc2c(cc1OC)C(C(=O)N1CCCC1)C(c1ccccc1F)N(C)C2=O` (centres undefined), the AC50 under setting [1] is 32.6 µM [falling, single point].

In the case of `N#CCC(=O)N/N=C\c1cccc(OC/C=C/c2ccccc2)c1`, under setting [1], the AC50 is 10 µM [falling, partial curve, poor fit].

For the compound `Cc1cccc(-c2noc(CN(C(=O)c3ccc(Br)o3)C(C)C)n2)c1`, the AC50 under setting [1] was 0.092 µM [rising, full curve, poor fit].

Consider `CC(C)CCn1c(Sc2nc3ccccc3s2)nc2c1c(=O)[nH]c(=O)n2C`, for which the AC50 under setting [1] was 20 µM [falling, single point].

For the compound `C=CCn1c(SCc2ccc3nonc3c2)nnc1-c1cccs1`, under setting [1], the AC50 was 6.51 µM [falling, single point].

Turning to `O=S(=O)(NC12CC3CC(CC(C3)C1)C2)c1ccc(F)cc1`, the AC50 under setting [1] is 20.6 µM [falling, partial curve].
